# Test results reported in PubChem BioAssay AID1794845 (National Center for Advancing Translational Sciences (NCATS), 2023).
# Chains of the proteins cited; added tags and fusions are not shown. Lines headed by an entry give the natural chain unless they say otherwise; changes in a name come on top.
# UniProt C7C422: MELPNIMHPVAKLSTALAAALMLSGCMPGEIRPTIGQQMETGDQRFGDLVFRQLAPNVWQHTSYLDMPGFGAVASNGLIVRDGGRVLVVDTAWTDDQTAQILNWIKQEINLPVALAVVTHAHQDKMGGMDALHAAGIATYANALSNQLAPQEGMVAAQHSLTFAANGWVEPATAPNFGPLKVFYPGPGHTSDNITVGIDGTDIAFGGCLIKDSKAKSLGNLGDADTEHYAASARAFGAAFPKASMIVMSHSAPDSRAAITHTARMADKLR
# Hit rate of the full screen: of about 6,900 compounds, fewer than 10 were called active. Calls follow the shape of the dose curve; as a rule, active = well fitted curve in the direction sought with a large enough effect; inconclusive = small, poorly fitted or top-dose-only effect, or another doubt; inactive = no such curve, though single readings can be large or run the other way. This is one part of the list.
# Target: Metallo-beta-lactamase type 2 (Klebsiella pneumoniae) (UniProt C7C422)
# Assay: qHTS to identify inhibitors of the New Delhi Metallo-beta-lactamase (NDM): primary screen against the NCATS Gemini Collection; also: % of control where 0% means no effect
# Conditions: NDM-1 enzyme, meropenem hydrolysis, absorbance 300 nm; at 38.4 µM (top of the series) unless noted
# Outline: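 NDM-1 at 2 nM final in 50 mM HEPES pH 7.0, 1 uM ZnSO4, 0.01% Tween20, preincubated >30 min with compound. Meropenem 50 uM final added; absorbance at 300 nm after 30 min.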
row,Compound,activity % (negative = inhibition)
1,O=C(c1cn[nH]c1)N1CCC(c2nc(CCOCC3CC3)no2)C1 (configuration not stated),inactive: 2%
2,CCC(C(=O)N1CCCn2nc(C(=O)Nc3ccccc3)cc2C1)n1cccn1 (configuration not stated),inactive: 10.2%
3,CC(C)N1CC(C(=O)NCCc2ccc(Cl)cc2)NC1=O (configuration not stated),inactive: 9.73% [at 57.5 µM]
4,Cc1cnn(CCC(=O)N2CCCn3ccnc3C2c2cnn(C)c2)c1 (configuration not stated),inactive: 0.21%
5,O=C(CCSCc1ccccc1)N1C[C@@H](CN2CCOCC2)[C@@H](CO)C1,inactive: -3.89%
6,CC(=O)N1CCN(Cc2nnc(C(=O)N3CCC[C@@H]3c3cccc(F)c3)n2-c2ccccc2)CC1,inactive: 2.15%
7,Cc1noc(C)c1CN1CCN(C(=O)C2CCCN2)CC1 (configuration not stated),inactive: 66.7%
8,COc1ccc(O)cc1CN1CCC(Cc2ccc(C(=O)O)cc2)C1 (configuration not stated),inactive: 3.25%
9,CCS(=O)(=O)N[C@@H]1CN(Cc2ccccc2)C[C@H]1CN(C)C,inactive: 4.86%
10,O=C(Cc1cccn1-c1ccc(F)cc1)N1CCCCC1,inactive: 1.33%
11,O=C(NCCc1ccncc1)C1CN(C(=O)C2CCCCC2)CC12CCOCC2 (configuration not stated),inactive: -8.79%
12,O=C1NCCCc2[nH]c(-c3cnn(-c4ccc(F)cc4)c3)nc21,inactive: 23%
13,Cc1cccc(C(=O)N2CC(N(C)Cc3cccnc3)C2)c1,inactive: 3.58%
14,CC(=O)N1CCC([C@@H]2CN(Cc3ccc(C)s3)C[C@H]2CO)CC1,inactive: -11.6%
15,Cc1cnc(CN2CC3(CCCN(C(=O)c4ccc(C)s4)C3)CCC2=O)cn1 (configuration not stated),inactive: -0.0078%
16,CN1C(=O)CCCCC1C(=O)NCC1CCCCC1 (configuration not stated),inactive: 48.3%
17,COc1ccc(-c2nc(C)nc3c2CCC3)c2ccc(C)nc12,inactive: 6.9%
18,COc1ccc(NC(=O)N[C@H]2CO[C@H]3[C@@H]2OC[C@@H]3n2nnnc2-c2ccccc2)cc1,inactive: -10.4% [at 57.5 µM]
19,COCCNC(=O)C1CCC(=O)N1C1CCNCC1 (configuration not stated),inactive: -1.62%

row,Compound,activity % (negative = inhibition)
1,O=C(CCc1nc2ccccc2s1)N1CCC(c2noc(C3CC3)n2)C1 (configuration not stated),inactive: 9.26%
2,Cc1ccc(-c2cc(O)c3c(c2)CNCCO3)cc1,inactive: 0.339%
3,COCC(=O)NC1CCC12CCN(Cc1ccc(C)o1)CC2 (configuration not stated),inactive: 1.04%
4,COc1ccccc1OCc1cc(C(=O)N2CCCCCCCC2)n[nH]1,inactive: 3.12%
5,CCc1noc(-c2cn(C3CCCN(C(=O)c4ccc(C(C)(C)C)cc4)C3)nn2)n1 (configuration not stated),inactive: 0.239%
6,Cc1cnc(CC2CCN(S(=O)(=O)c3cn(C)cn3)C2)n1Cc1ccccc1 (configuration not stated),inactive: -7.95%
7,NC(=O)COc1cccc(CN2CCN(c3ccc(F)cc3F)CC2)c1,inactive: 3.18%
8,Cc1ccccc1N1Cc2c(NC3CCCCCC3)ncnc2N(C)CC1=O,inactive: 4.82%
9,COc1cccc(N2C(=O)NC(=NC3CCCC3)C23CCN(Cc2ccccc2)C3)c1 (configuration not stated),inactive: -0.863%
10,CCC(C(=O)N1CCC2(CCC(=O)N(Cc3ccccn3)C2)CC1)n1cccn1 (configuration not stated),inactive: 1.86%
11,O=S(=O)(NC[C@@H]1CCNC[C@H]1O)c1ccc(OC(F)(F)F)cc1,inactive: 6.51%
12,Cc1nc(CCNC(=O)[C@H]2CCC[C@H](O)C2)nc2c1CCC2,inactive: 0.624%
13,O=C1CC(c2ccccc2)N(C(=O)CNC(=O)c2n[nH]c3ccccc23)CCCCCCN1 (configuration not stated),inactive: -1.24%
14,Cc1nonc1OCCn1ccnc1-c1cn(C2CCNCC2)nn1,inactive: 3.42%
15,CCn1ccn2c(-c3ccccc3)nc(C)c2c1=O,inactive: 10.1%
16,CN(C)C(=O)N1CCCn2nc(CNC(=O)C(=O)c3ccco3)cc2C1,inactive: 7.71%
17,C=CCN1CCN(C(=O)[C@@]23CCCC[C@H]2N(CCC(C)C)C(=O)CC3)CC1,inactive: -1.97%
18,Cc1ccc(-c2noc([C@@H]3Cc4nc[nH]c4CN3Cc3cccs3)n2)cc1,inactive: 29.3% [at 57.5 µM]
19,O=C(CCCc1ccccc1)N1CCCCCC1c1nc(C2CC2)no1 (configuration not stated),inactive: -5.5%

# Some values from the list:
# In activity % (negative = inhibition), CN(C)C(=O)N1CCCn2nc(CNC(=O)C(=O)c3ccco3)cc2C1 has inactive: 7.71%
# In activity % (negative = inhibition), COc1cccc(N2C(=O)NC(=NC3CCCC3)C23CCN(Cc2ccccc2)C3)c1 (configuration not stated) has inactive: -0.863%

# Following part:

row,Compound,activity % (negative = inhibition)
1,Cn1cncc1CNC(=O)c1nc(-c2cccc(N3CCOCC3)c2)cc2c1ccn2C,inactive: 19.7% [at 57.5 µM]
2,O=C(N[C@@H]1CN(Cc2c[nH]c3ccccc23)C[C@H]1CO)c1ccccc1,inactive: 0.0707%
3,CC(C)c1cc(CN2CCC(N3CCC(C(=O)NCc4ccccn4)CC3)CC2)[nH]n1,inactive: -1.33%
4,Cc1ccc(CN2CC(Oc3cccc(C(=O)N4CCOCC4)c3)C2)s1,inactive: -2.35%
5,Cc1cccc(-c2ncc(CN(CCC(N)=O)Cc3ccccc3)cn2)c1,inactive: -0.301%
6,COc1ccc(OCC2CN(CC3CC3)[S+](=O)([O-])c3cnccc3O2)cc1 (configuration not stated),inactive: 2.03% [at 16.1 µM]
7,CC1CCN(CCNC(=O)c2cc3cn(C(C)C)cc3s2)CC1,inactive: 43.3%
8,CN1CC(C(=O)NCc2cccs2)NC1=O (configuration not stated),inactive: -3.67% [at 57.5 µM]
9,Cc1ccc([S+](=O)([O-])N2CC3(Cc4ccccc4N([S+](C)(=O)[O-])C3)C2)cc1,inactive: 5%
10,COc1ccc(C(=O)N2CCCC2c2nc(CCOc3cccc(C)c3)no2)cn1 (configuration not stated),inactive: -1.73%
11,COc1ccc(CN2CCN(c3nc4ccccc4o3)CC2CCO)c(F)c1 (configuration not stated),inactive: 6.59%
12,O=C(COc1ccc(F)cc1)N1CCCN(c2cc(-c3ccc(Br)cc3)[nH]n2)CC1,inactive: 1.52%
13,Cc1ccc(CN2CCC3(CC2)CCN(Cc2ccco2)CC3CO)s1 (configuration not stated),inactive: 7.76%
14,O=C1COc2ccc(-c3cccc(O)c3)nc2CN1Cc1ccc(C(F)(F)F)cc1,inactive: 4.39% [at 57.5 µM]
15,CCOc1ccc(C(=O)N2CCC(n3cc(-c4nc(CC)no4)nn3)C2)cc1 (configuration not stated),inactive: 9.07%
16,Cc1cc(Cl)ccc1OCC(=O)N1CC(CO)C2(CCNCC2)C1 (configuration not stated),inactive: 1.76%
17,O=C(NCC1CCOCC1)Nc1c(F)cccc1F,inactive: -3.66%
18,Cn1ccc(C(=O)N2CC3ON=C(C(=O)NCCc4ccc(Cl)cc4)C3C2)n1 (configuration not stated),inactive: -0.156%
19,Cn1cc(-c2cc(=O)c3ccnc(NC4CCOCC4)c3o2)cn1,inactive: 21.4% [at 57.5 µM]
